Source: patent publication US5905036A, “Characterization of organic contaminants and assessment of remediation performance in subsurface formations” (Board Of Regents, The University of Texas System, priority 1997, dated 1999)

Experiment: Partitioning tracer column experiment, PCE-contaminated water-saturated Ottawa sand (Example 1)
Assay type: physicochemical
Method: A soil column experiment was performed to illustrate the use of partitioning tracers to detect DNAPL in a saturated zone. A Kontes preparative chromatography column made of borosilicate glass (4.8 cm ID) was packed with-mesh sizes of 60 to 200 Ottawa sand and saturated with water at 23° C. The length of this sandpack was 12.24 cm. The porosity and intrinsic permeability to water were measured and found to be 0.329 and 5.84 Darcy, respectively. […] Two alcohol tracers were added to the water and 0.52 pore volumes of water containing these tracers were injected at 0.316 ml/min followed by several more pore volumes of water until the alcohols could no longer be detected in the effluent. […] The partition coefficients of each of these alcohols were determined by equilibrating samples containing in the range of 100 to 1,000 mg/l of both alcohols with equal volumes of water and PCE and measuring the alcohol concentrations in each phase using a gas chromatograph. […]
The separation of the two curves gives an unmistakable signal that the sand is contaminated with PCE. […] This value agrees with the value measured from a mass balance on the PCE within the experimental error of each of the measurements. The tracer curves were then numerically simulated using this value and the measured partition coefficients and these are the curves shown in FIG. 1. […]

SMILES: ClC(Cl)=C(Cl)Cl [PCE, tetrachloroethylene]
- residual PCE saturation, method of moments (from IPA/DMB tracer separation): 0.189
- residual PCE saturation, inverse modeling (nonlinear least-squares regression): 0.209
